# At least one structure is not confirmed: it was looked up by name or label, or the drawing left a doubt.
# System: PAF (Platelet activating factor)
# Assay: Plasma PAF content by ELISA, rabbit wound-limb deep venous thrombosis forming model
# Type: in vivo
# Conditions: *p<0.05, **p<0.01, ***p<0.001 vs model group
# Protocol: Eight were taken as control group and the rest were treated by a striking device. […] Specifically: the rabbit was anesthetized by intravenous injection of 3% pentobarbital sodium at ear edge with the dose of 1 ml/kg. The rabbit was kept laying down at right side prostrate position and the left thigh was set on the striking platform. […] The self-made striking device was used for striking the outer side of the thigh near-end, and the plaster was used for fixing the left limb on the hip/knee-bending area. When the plaster bandage was applied and the right hip was examined to move freely, the rabbit was kept to lay down until solidification. After the model establishment, the animal was allowed to drink water normally and was fed with granular food. No anticoagulant or antibiotic was used. Animals were grouped after modeling. The drug was fed according to table 4 via oral gavage, once a day for 7 days continuously. At 0.5, 1.0, 2.0, 3.0 and 4.0 h after the first administration, blood was taken from ear central artery. Plasma was separated and the content of PAF was determined by ELISA.
smiles,measurement,setting,value
CC1C(=O)OC2C(O)C34C5CC(C(C)(C)C)C36C(OC(=O)C6O)OC4(C(=O)O5)C12O (stereo not drawn) [Ginkgolide B],PAF content (x ± SD),0.5 h after administration,850.71* ± 284.79 ng/L
same,PAF content (x ± SD),2 h after administration,975.71** ± 146.46 ng/L
same,PAF content (x ± SD),4 h after administration,1155.00* ± 414.16 ng/L

# — patent publication US10058533B2, “Pharmaceutical composition containing Ginkgolide B and Xa factor inhibitor, preparation method thereof and use thereof” (CHENGDU BAIYU PHARMACEUTICAL CO., LTD, priority 2014, dated 2018)
